Assay results: patent US20140113876A1, “BIOMARKERS FOR ASSESSING TREATMENT OF SIALIC ACID DEFICIENCY DISEASES AND CONDITIONS” (ULTRAGENYX PHARMACEUTICAL INC., priority 2012, published 2014)

B1: Myoglobin (protein, UniProt P02144 2-154, looked up)
Myoglobin: GLSDGEWQLVLNVWGKVEADIPGHGQEVLIRLFKGHPETLEKFDKFKHLKSEDEMKASEDLKKHGATVLTALGGILKKKGHHEAEIKPLAQSHATKHKIPVKYLEFISECIIQVLQSKHPGDFGADAQGAMNKALELFRKDMASNYKELGFQG
B2: Vascular Endothelial Growth Factor C (VEGF-C) (protein, UniProt P49767 112-227, looked up)
Vascular endothelial growth …: AHYNTEILKSIDNEWRKTQCMPREVCIDVGKEFGVATNTFFKPPCVSVYRCGGCCNSEGLQCMNTSTSYLSKTLFEITVPLSQGPKPVTISFANHTSCRCMSKLDVYRQVHSIIRR
B3: Neuron-Specific Enolase (NSE) (protein, UniProt P09104 2-434, looked up)
Gamma-enolase: SIEKIWAREILDSRGNPTVEVDLYTAKGLFRAAVPSGASTGIYEALELRDGDKQRYLGKGVLKAVDHINSTIAPALISSGLSVVEQEKLDNLMLELDGTENKSKFGANAILGVSLAVCKAGAAERELPLYRHIAQLAGNSDLILPVPAFNVINGGSHAGNKLAMQEFMILPVGAESFRDAMRLGAEVYHTLKGVIKDKYGKDATNVGDEGGFAPNILENSEALELVKEAIDKAGYTEKIVIGMDVAASEFYRDGKYDLDFKSPTDPSRYITGDQLGALYQDFVRDYPVVSIEDPFDQDDWAAWSKFTANVGIQIVGDDLTVTNPKRIERAVEEKACNCLLLKVNQIGSVTEAIQACKLAQENGWGVMVSHRSGETEDTFIADLVVGLCTGQIKTGAPCRSERLAKYNQLMRIEEELGDEARFAGHNFRNPSVL

Tested on: HIBM patients
Experiment: Phase 2 clinical trial: baseline serum biomarker levels in 47 HIBM patients vs 126 normal controls (Human Discovery MAP250+ immunoassay)
Format: in vivo
Settings: for change in mean (HIBM/nomral) / change in median (HIBM/normal): fold, HIBM patients vs normal controls; for HIBM Mean / HIBM Median / Normal Mean / Normal Median: serum level; for HIBM Mean / HIBM Median: 47 HIBM patients, baseline; for Normal Mean / Normal Median: 126 normal controls

Molecule | change in mean (HIBM/nomral) (Table 12) | change in median (HIBM/normal) (Table 12) | change in mean (HIBM/nomral) (Table 13) | change in median (HIBM/normal) (Table 13) | HIBM Mean (Table 12) [ng/mL] | HIBM Median (Table 12) [ng/mL] | HIBM Mean (Table 13) [ng/mL] | HIBM Median (Table 13) [ng/mL] | Normal Mean (Table 12) [ng/mL] | Normal Median (Table 12) [ng/mL] | Normal Mean (Table 13) [ng/mL] | Normal Median (Table 13) [ng/mL]
Brain-Derived Neurotrophic Factor (BDNF) | 34.58 | 50.06 | 34.58 | 50.06 | 19.72 | 20.00 | 19.72 | 20.00 | 0.57 | 0.40 | 0.57 | 0.40
Creatine Kinase-MB (CK-MB) | 11.37 | 10.90 | 11.37 | 10.90 | 12.36 | 8.70 | 12.36 | 8.70 | 1.1 | 0.80 | 1.1 | 0.80
Epidermal Growth Factor (EGF) | 23.55 | 53.22 | 23.55 | 53.22 | 0.27828 | 0.248 | 0.27828 | 0.248 | 0.012 | 0.0047 | 0.012 | 0.0047
Epithelial-Derived Neutrophil-Activating Protein 78 (ENA-78) | 6.42 | 6.85 | 6.42 | 6.85 | 2.46 | 2.00 | 2.46 | 2.00 | 0.38 | 0.29 | 0.38 | 0.29
Hepatocyte Growth Factor (HGF) | 4.59 | 5.04 | 4.59 | 5.04 | 14.18 | 13.00 | 14.18 | 13.00 | 3.1 | 2.6 | 3.1 | 2.6
Latency-Associated Peptide of Transforming Growth Factor beta 1 (LAP TGF-b1) | 9.75 | 11.14 | 9.75 | 11.14 | 10.63 | 11.00 | 10.63 | 11.00 | 1.1 | 0.99 | 1.1 | 0.99
Matrix Metalloproteinase-1 (MMP-1) | 6.89 | 7.24 | 6.89 | 7.24 | 7.93 | 6.90 | 7.93 | 6.90 | 1.2 | 0.95 | 1.2 | 0.95
Platelet-Derived Growth Factor BB (PDGF-BB) | 57.62 | 93.41 | 57.62 | 93.41 | 15.63191 | 15.6 | 15.63191 | 15.6 | 0.271 | 0.167 | 0.271 | 0.167
Receptor tyrosine-protein kinase erbB-3 (ErbB3) | 0.29 | 0.14 | 0.29 | 0.14 | 0.62 | 0.31 | 0.62 | 0.31 | 2.2 | 2.3 | 2.2 | 2.3
T-Cell-Specific Protein RANTES (RANTES) | 12.69 | 17.14 | 12.69 | 17.14 | 18.26 | 18.00 | 18.26 | 18.00 | 1.4 | 1.1 | 1.4 | 1.1
Thrombospondin-1 | 11.19 | 16.34 | 11.19 | 16.34 | 9800.64 | 9540.00 | 9800.64 | 9540.00 | 876 | 584 | 876 | 584
B1 | 10.16 | 8.81 | 10.16 | 8.81 | 152.09 | 100.00 | 152.09 | 100.00 | 15 | 11 | 15 | 11
B2 | 9.07 | 9.60 | 9.07 | 9.60 | 35.32 | 36.00 | 35.32 | 36.00 | 3.9 | 3.8 | 3.9 | 3.8
B3 | 0.18 | 0.11 | – | – | 2.51 | 1.10 | – | – | 14 | 10 | – | –
